The target of assay [1] is T1, Usp fused to APEX2 through a 25 nm GS linker, marked with 3xFLAG (Drosophila melanogaster) (UniProt P20153).
T1 sequence: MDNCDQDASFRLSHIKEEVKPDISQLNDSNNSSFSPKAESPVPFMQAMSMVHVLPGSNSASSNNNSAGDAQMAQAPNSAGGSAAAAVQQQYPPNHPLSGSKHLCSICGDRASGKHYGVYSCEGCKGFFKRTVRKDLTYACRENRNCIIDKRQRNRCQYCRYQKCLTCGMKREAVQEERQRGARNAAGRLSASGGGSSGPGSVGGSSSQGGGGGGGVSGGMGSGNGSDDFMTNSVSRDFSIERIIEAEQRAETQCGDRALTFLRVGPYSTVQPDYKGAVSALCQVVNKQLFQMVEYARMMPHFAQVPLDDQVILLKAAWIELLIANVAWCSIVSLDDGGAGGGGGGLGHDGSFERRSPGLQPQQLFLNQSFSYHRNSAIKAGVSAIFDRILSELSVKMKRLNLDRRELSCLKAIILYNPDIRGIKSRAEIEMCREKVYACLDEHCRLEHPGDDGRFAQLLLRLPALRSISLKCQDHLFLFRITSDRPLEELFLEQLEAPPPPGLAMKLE
In words: proximity labelling; APEX2 fused to EcR or Usp, stably expressed in S2 cells; 20E or DMSO 1 h, biotin-phenol 30 min, 1 mM H2O2 5 min; nuclear extract, Streptavidin-Agarose precipitation, LC-MS/MS.

The target in assay [2] is T2, EcR (isoform A) fused to APEX2 through a 25 nm GS linker, marked with 3xFLAG (Drosophila melanogaster) (UniProt P34021).
T2 sequence: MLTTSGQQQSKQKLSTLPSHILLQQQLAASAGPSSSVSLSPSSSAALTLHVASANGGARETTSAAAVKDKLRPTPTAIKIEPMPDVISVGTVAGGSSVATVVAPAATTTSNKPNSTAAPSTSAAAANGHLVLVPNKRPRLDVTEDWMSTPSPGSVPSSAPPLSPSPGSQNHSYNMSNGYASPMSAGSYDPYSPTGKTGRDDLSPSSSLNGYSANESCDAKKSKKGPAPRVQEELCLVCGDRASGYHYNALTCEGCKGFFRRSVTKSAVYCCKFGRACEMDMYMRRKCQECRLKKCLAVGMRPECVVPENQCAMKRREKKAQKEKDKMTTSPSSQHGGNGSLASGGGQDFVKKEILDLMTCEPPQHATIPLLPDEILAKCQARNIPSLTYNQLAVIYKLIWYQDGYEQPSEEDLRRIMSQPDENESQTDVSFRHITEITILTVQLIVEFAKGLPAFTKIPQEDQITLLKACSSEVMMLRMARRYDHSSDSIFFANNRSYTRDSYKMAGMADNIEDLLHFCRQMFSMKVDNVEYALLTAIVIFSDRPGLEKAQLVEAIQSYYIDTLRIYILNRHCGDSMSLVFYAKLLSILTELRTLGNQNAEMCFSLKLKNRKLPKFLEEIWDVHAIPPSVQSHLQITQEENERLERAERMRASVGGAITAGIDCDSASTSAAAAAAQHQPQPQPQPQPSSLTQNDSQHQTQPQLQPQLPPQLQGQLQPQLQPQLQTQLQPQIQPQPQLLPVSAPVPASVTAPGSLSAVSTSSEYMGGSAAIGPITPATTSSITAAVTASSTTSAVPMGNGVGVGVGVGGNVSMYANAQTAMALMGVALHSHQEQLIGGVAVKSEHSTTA
The description is as above.

Results are given in words; binding and its absence hold for the method and conditions named. In cells and extracts the contact can be indirect. A yes stands for co-enrichment or nearness to the bait. Other partners may have been found. Tags and fused reporters may be left off the sequences shown.

B1: REG (protein, UniProt Q9V3P3 1-245)
chain: MPNDTVVKVQEYKDSLILKAELLITKGFPENIVRLNELLATPIFNERNFEEVHQDLNIPVLPPLLVKNELEDRDSLPTKRQRVDVIVSGQPVMGLPAGTVPCNKPLCEMIKVVKPIIRKLVEDSNLLKMWISFMIPKIEDGNNFGVSIQEDTLAEIQTVESEAAAFFDQISRYFLSRAKVVSKVAKYPHIDDYRRAVVELDEKEYLSLWLVVCEVRNRYSSLHDIVIKNLEKLKKPRSSNTESLY
In the case of B1, the binding entry in assay [1] and in assay [2] was “binds” in each case.

B2: CG10489 (protein, UniProt Q9VRQ7 1-525)
chain: MDVDLLPLRKRITNTFKLCGFLIRSENSSYLAEQLLPFDAAERDKWLTVITENLQSQKLLTPHVERAALEKAINELNRVGLDEGETVFALIDAFTVPRFRYNQRIKKFELDTQPRQLLTAPRMKSDYMQQRYAMLLQKTLRHDLFAPAVIQDGVGAEAQAKKFKLQFAENLLATSAMKEAVVLGLLTQLKEGKFYVEDPTGCVQLDLTGARFHAGFFCEGCFVLAEGNYNNGVLKVDGLGFPPAEPANSSRAFFGTANTWGGESAKLLKYSAGLQELERTNTETTIVFLSDVRLDLPVVMEKLRQLFVGYDSCPPQAIVLMGPFTASTRNHHELRHHLDALGGLAAGCEQLKKQTDLILVPSSEDPTAPNILPRAPIPECLAAGLLKAWPRTQLATNPCRLQYCTQQIVVCRLDLMAKFCRNTLHFPEDTSQIEQHFARTIVCQGHLVPIHPIAMPVHWDYDPALWLYPLPDLIVMGDSCQSFSSSQHGCTVLNTGSFVKSKFAFKVYIPATRTIEDSEIPDELE
Take B2: the binding entry in assay [1] and in assay [2] was “binds” in each case.

B3: Mcm5 (protein, UniProt Q9VGW6 1-733)
chain: MEGFDDAGVFFSDNFGGDNQQDAQINLQAVKKKYKEFIRTFNEENFFYKYRDTLKRNYLNGRYFLEIEMEDLVGFDETLADKLNKQPTEHLEIFEEAAREVADEITAPRPEHEEHMHDIQILLSSNANPTNIRQLKSDCVSKLVKIAGIIVAASGISAKATRMSIQCLSCSTVIPNLKVNPGLEGYALPRKCNTEQAGRPKCPLDPFFIMPDKCKCVDFQTLKLQELPDFVPQGEIPRHLQLFCDRSLCERVVPGNRVLIQGIYSIRKVGKPSRRDGREKAVVGVRAPYMRVVGITVDSEGAGAISRYSNITSDEEEHFRRMAASGDIYERLSQSLAPSIFGSRDIKKAITCMLFGGSRKRLPDGLCRRGDINVLLLGDPGTAKSQLLKFVEKVAPIAVYTSGKGSSAAGLTASVMKDPQTRNFVMEGGAMVLADGGVVCIDEFDKMREDDRVAIHEAMEQQTISIAKAGITTTLNSRCSVLAAANSIFGRWDDTKGEENIDFMPTILSRFDMIFIVKDIHDESRDITLAKHIINVHLSSNKSAPSEPAEGEISLSTFKKYIHYCRTHCGPRLSEAAGEKLKSRYVLMRSGAGQQEKASDKRLSIPITVRQLEAVIRISESLAKIRLQPFATDEHVNEALRLFQVSTLDAAMTGSLAGAEGFTTEEDQETLNRIEKQLKRRFAIGSQVSEQNILQDFLRQKYEERTVMKVIHTMIRRGELQHRMQRKMLYRIC
For the molecule B3, the binding result in assay [2] is reported as “binds”.

B4: HDAC4 (protein, UniProt Q9VYF3 1-1252)
chain: MSSPDDRIPIHDLPSEAGSDERLLHITPATLTLDFKPHPAVDIDQQIMELKKSQELQKQRLINSFQEQSKQMELEHKLQLEHKYQFAVNSHGAFQELRNESMVTAAAAAVAQEQHRQQLHQQQQQHQQQQQQQQHQQQQQQQQARGRDGMKLKQNCSANASPEVKQILNCFILSRKSQAAASNGTTTTSPYRNRGVVKSSSGESLPAGTVTSAHPYKIPQPPPSLLKYESDFPLRKTASEPNLLKIRLKQSVIERKARIGGPAGARRHERLLQAAQRRQQKNSVLTNCNSTPDSGPNSPPSAAALAVGVVGSRGSPTSAPIQEENEEGSQYQPGQRSSINDLPLFSSPSLPNISLGRPHLPNSAQAHAQVNAQVAAQAQAQAQAQAQAHAMFAALAAAQGGCGQPGYYNPLGMAFVGRQPAPLAMIPATGIAPQQPSPVVRSASATSTSSSQASLVGDVAPPQAHAASTILPSSSSYMQQLGSVAGSGVNLHAAAVAAAAAAAAAAGSLPPTNSHGHGHGSHAHPHPHAHGHGHGHGHGIYAGHQHNVPITDAQVAQVHLHKQGHRPLGRTQSAPLPLGHPMLTGAVQLNVVQTHYENSEAERQAYEHQVVNQKVRQTVLTRSGAAAAAAAAAGVSVVREAQLKEEDDDSAAEVMDLTDKKKPPKTVLTSTIATSTSQNLPEALAAAAAAAAYRAPHNASSNSASATKSGIKLRDQEYLQQQREQLLLLQQEEELAKSLMRPLSRTLSSPLVPLGPHGLSQIPDTGQQPAPIATSSSADHIPPVNLSLPHRQHRQLMSTLYASQLRNHQPSASGSPPHKVTTGLAYDPLMLKHSCICGDNAQHPEHSGRLQSVWARLNETDLVKRCDRLRARKATQEELQTVHTEAHAMLFGSNQCQLSRPKLENTLSASFVRLSCGGLGVDLDTTWNEHHTATAARMAAGCVIDLALKTAKGDLRNGFAVVRPPGHHAEANLAMGFCFFNSIAIAAKLLRQRMPEVRRILIVDWDVHHGNGTQQAFYQSPDILYLSIHRHDDGNFFPGTGGPTECGSGAGLGFNVNISWSGALNPPLGDAEYIAAFRTVVMPIARSFNPDIVLVSSGFDAATGHPAPLGGYHVSPACFGFMTRELLQLANGKVVLALEGGYDLAAICDSAQECVRALLGDPAAPIAKAELERPPCQNAINTLQKTIAIQQTHWPCVRMLEHTVGLSALETLKVEHDESETINAMAGLSMQSMHRTLSRDDSEEPMDQDETK
On to B4, for which the binding result in assay [2] is recorded as “binds”.

B5: RnrL (protein, UniProt P48591 1-812)
chain: MLKNKSMKTSKLYVIKRDGRQEEVHFDKITSRIQKLCYNLNMDFVDPVTITLQVINGLYCGVTTQELDNLAAEIAAGLTCNHPDYAILAARIAVSNLHKETKKAFSDVFEDLYNHVNKETNQKVPLVSEFHYNVVKKNATRLNSSIIYDRDFGYNYFGFKTLERSYLLKRNGKIAERPQHMLMRVAIGIHGEDIDAAVETYNLLSERYFTHASPTLFAAATNRPQLSSCFLLTMTADSIEGIFKSVEQCAMISKSAGGIGLNVHCIRAKGTSICGTNGTSNGLVPMLRVFNNVARYVDQGGGKRPGAFAIYLEPWHSDVFEFLELKKNTGKEENRARDLFYALWIPDLFMKRVEANGDWSLMCPHKCPGLHDVWGDEFEKLYEKYEQEGRANRTVKAQSLWFAIIEAQVETGNPYMLFKDACNRKSNQQNVGTIKCSNLCTEIVEYSAPDEIAVCNLASIALNMFVTPEKTYDFKKLKEVTKIVTKNLNKIIDINYYPLPEARKSNLRHRPVGIGIQGFADALILMRFPYESEEAGLLNQQIFETIYYGALEASCELAQTEGPYETYEGSPVSKGILQYDMWDKVPTNLWDWQKLKESIRMHGVRNSLLVAPMPTASTAQIMGNNESFEPYTTNIYTRRVLSGEFQVVNHHLLRDLTELDLWDDDMKNQIISSRGSIQNIETIPPKVRDLYKTVWEISVKSTIKMAADRGAFIDQSQSFNIHVAEPNYGKLTSIHFYSWKAGLKTGMYYLRTKPAANAIQFTVNKKQGAVSMNGQNGTAEGSPQKYEEDRERKMADMVCSLENKDACMSCGS
For the molecule B5, the binding entry in assay [1] and in assay [2] was “binds” throughout.

B6: Ars2 (protein, UniProt Q9V9K7 1-943)
chain: MGDSDDEYDRKRRDKFRGERESYRTERRDDRRPVGGSAGARDEWAERNPFRGGASAGGGGARHRPDYSDYRGPGARPRYGSPVRDLPPAKRMRPDWGDGDVRANPRFGGYDPYLMQAWNDHYQSMHSAYSHGGHAPPVRESIGGGGGDTLTQPAMLNLKQFLDTQDENISDSEVMRKYTEYKTDFKRQQLNEFFVAHKDEEWFKNKYHPEDSVKRSEEQRGFLQRRTDVFMELLENGTIGSVKVDSSQADALIRVLDTCVIKLEGGTDEDLKVLDEKPKDPVVYERKAEQMQSVKEVEKTINSPKEEMSEADPVSTQRKPVRPVNSDGENWDDDDAENSAPKKELAEDSKDSDSKPEDKQLNKKKTKKRKRNSSDDDSSSSESSSSSDEEKLKEKYDVEDGLRAEQKTEAEKDRQEATKAKQGPQSPKLDEDEGNENTEPKGLDSKINTYEEIDNTLKSPEISSNPIKNTDNGDGSKVEEDGEKPSVGKDKVVETETIDLDKVKDGQPRALHRTSSIFLRNLAPSITRSEIEAVCNRFSGYLRVAIADPLVERRWYRRGWITFMRDVNIKEICWGLNNQRLRDCEMGAIVNRDLSRRVRPANGITAHKQVVRSDIKLCAKIALNLDEKFRLWAEGPKDDSNSARANESSENGSGSTYGFNSQNPVLQNITDYLIEEASAEEEELLGLTGENKDTEGEPIERDEQLISVLDRLVLYLRIVHSVDYYNHCEYPYEDEMPNRCGIIHARGPPPVRVTNNDVQEYIKIYESKLQQFLTKTVPLSDEEIKNLGAKDAETEVEKFVQANTQELAKDKWLCPLSGKKFKGPEFIRKHIFNKHEEKVDEVRKEVQYFNNYLRDPKRPQLPEHPGTSKRPESESARGGGGGYRPPMYPPFSAMPYGFGPPMMGGGRGGRNFPPARRELPLEHQRRLIGYHDLDAPANSDMFD
For the molecule B6, the binding entry in assay [1] and in assay [2] was “binds” each time.

The values above are taken from article PMC7075897.
